Assay results: PubChem BioAssay AID248 (DTP/NCI, 2004)
The list is a part of this screen's results and no random one: it is rich in T/C values a quarter to a half above the control, in often repeated tests (any T/C) and in doses without a T/C. Further doses and runs are listed elsewhere. T/C: endpoint of the treated group in % of that of the vehicle group. Some entries give survivors of the animals treated and no T/C: the source holds a T/C of zero for them, seemingly a mark for toxic or unscored doses. Some survivor counts are full or nearly so, which does not show that the dose was tolerated: the source hardly ever lists a survival T/C far under the control, and the zero likely stands for such cases as well. Survivors were counted at the toxicity check, usually on the fifth day, unless a day is given; later deaths do not show. Schedules are NCI's codes, taken here to give the interval after Q, in days (D) or hours (H), and the number of doses after X. Some entries hold several experiments; the values are given in rising order. Some schedules carry Z or #; the key to these is not given. For survival time, the PubChem record calls one and a half times the control and up active, and a quarter to a half above the control has no call in these data; cut-offs in other NCI protocols can differ. Some T/C values are followed by the survivors on the day toxicity was checked, most often the fifth; without a count, all were alive then.

Test system: L1210 leukemia ip in BDF1 mice, survival T/C
Assay: NCI In Vivo Anticancer Drug Screen. Data for tumor model L1210 Leukemia (intraperitoneal) in B6D2F1 (BDF1) mice
Settings: T/C endpoint: mean survival time, higher T/C = longer survival
[1] = dose: 400.0 mg/kg/injection, schedule: Q04DX003 (ip), vehicle: saline with Tween-80
[2] = dose: 400.0 mg/kg/injection, schedule: Q01DX001 (ip), vehicle: saline with Tween-80

CN(C)CC(C)(C)C(=O)c1ccc(F)cc1
survivor count (dose: 100.0 mg/kg/injection, schedule: Q04DX002 (ip), vehicle: saline): 0 of 3 and 3 of 3
survivor count (dose: 200.0 mg/kg/injection, schedule: Q04DX002 (ip), vehicle: saline): 0 of 3 and 3 of 3
survivor count (dose: 400.0 mg/kg/injection, schedule: Q04DX002 (ip), vehicle: saline): 0 of 3 and 3 of 3

Nc1ccc2c(c1)Cc1ccccc1-2
survivor count [1]: 0 of 3

C/C(CCl)=N\Nc1ccc([N+](=O)[O-])cc1[N+](=O)[O-]
survivor count [2]: 1 of 6

C=CCn1c(-c2ccc(N(C)C)cc2)nc2c(Cl)ncnc21
survivor count (dose: 200.0 mg/kg/injection, schedule: Q01DX001 (ip), vehicle: steroid suspending solution): 1 of 6
survivor count (dose: 400.0 mg/kg/injection, schedule: Q01DX001 (ip), vehicle: steroid suspending solution): 0 of 6

CNC1CC(N)C(O)C(OC2OC(CO)C(O)C3OC4(OC(C(N)CO)C(O)C(O)C4O)OC23)C1O (centres undefined)
survivor count (dose: 7.6 mg/kg/injection, schedule: Q01DX Z (ip), vehicle: saline): 0 of 6
survivor count (dose: 11.0 mg/kg/injection, schedule: Q01DX Z (ip), vehicle: saline): 0 of 6
survivor count (dose: 17.0 mg/kg/injection, schedule: Q01DX Z (ip), vehicle: saline): 0 of 6
survivor count (dose: 25.0 mg/kg/injection, schedule: Q01DX Z (ip), vehicle: saline): 0 of 6
survivor count (dose: 50.0 mg/kg/injection, schedule: Q01DX Z (ip), vehicle: saline): 0 of 6
survivor count (dose: 100.0 mg/kg/injection, schedule: Q01DX Z (ip), vehicle: saline): 0 of 6
survivor count (dose: 200.0 mg/kg/injection, schedule: Q01DX Z (ip), vehicle: saline): 0 of 6

CC1(C)CC(OP(=O)(CCl)OC2CC(C)(C)N(O)C(C)(C)C2)CC(C)(C)N1O
survivor count (dose: 400.0 mg/kg/injection, schedule: Q04DX002 (ip), vehicle: water): 0 of 3

O=C(COC(=O)c1ccccc1)NCCCCc1ccccc1
survivor count (dose: 100.0 mg/kg/injection, schedule: Q04DX002 (ip), vehicle: saline with Tween-80): 3 of 3
survivor count [2]: 6 of 6
survivor count [1]: 6 of 6

CCCCOC(=O)C(N)Cc1ccc(OC)c(N(CCCl)CCCl)c1 (centres undefined)
survivor count (dose: 1.2 mg/kg/injection, schedule: Q01DX009 (ip), vehicle: saline): 5 of 6
T/C (dose: 3.0 mg/kg/injection, schedule: Q01DX001 (ip), vehicle: saline): 131 and 138 % of control
T/C (dose: 4.0 mg/kg/injection, schedule: Q01DX001 (ip), vehicle: saline): 126 % of control
survivor count (dose: 4.5 mg/kg/injection, schedule: Q01DX009 (ip), vehicle: saline): 6 of 6
T/C (dose: 6.0 mg/kg/injection, schedule: Q01DX001 (ip), vehicle: saline): 136 % of control [5 of 6 alive]
T/C (dose: 9.0 mg/kg/injection, schedule: Q01DX001 (ip), vehicle: saline): 141 % of control
survivor count (dose: 12.0 mg/kg/injection, schedule: Q01DX001 (ip), vehicle: saline): 3 of 6
survivor count (dose: 12.5 mg/kg/injection, schedule: Q01DX001 (ip), vehicle: saline): 5 of 6
T/C (dose: 24.0 mg/kg/injection, schedule: Q01DX001 (ip), vehicle: saline): 145 % of control
survivor count (dose: 24.0 mg/kg/injection, schedule: Q01DX009 (ip), vehicle: saline): 2 of 6
survivor count (dose: 25.0 mg/kg/injection, schedule: Q01DX001 (ip), vehicle: saline): 2 of 6
survivor count (dose: 36.0 mg/kg/injection, schedule: Q01DX009 (ip), vehicle: saline): 0 of 6
survivor count (dose: 48.0 mg/kg/injection, schedule: Q01DX001 (ip), vehicle: saline): 3 of 6
survivor count (dose: 50.0 mg/kg/injection, schedule: Q01DX001 (ip), vehicle: saline): 0 of 6
survivor count (dose: 96.0 mg/kg/injection, schedule: Q01DX001 (ip), vehicle: saline): 0 of 6
survivor count (dose: 100.0 mg/kg/injection, schedule: Q01DX001 (ip), vehicle: saline): 0 of 6
survivor count (dose: 200.0 mg/kg/injection, schedule: Q01DX001 (ip), vehicle: saline): 0 of 6
survivor count (dose: 400.0 mg/kg/injection, schedule: Q01DX001 (ip), vehicle: saline): 0 of 6

CC(=S)NC(=O)Nc1cccc2ccccc12
survivor count (dose: 400.0 mg/kg/injection, schedule: Q01DX001 (ip), vehicle: Klucel (hydroxypropylcellulose) (HPC)): 3 of 3

CC(=O)OC1CCC2(C)C(=CCC3C2CCC2(C)C3CC3C(c4ccccc4Br)=NN(c4ccccc4)C32C#N)C1 (centres undefined)
T/C (dose: 12.5 mg/kg/injection, schedule: Q04DX002 (ip), vehicle: Klucel (hydroxypropylcellulose) (HPC)): 125 % of control
survivor count (dose: 25.0 mg/kg/injection, schedule: Q04DX002 (ip), vehicle: Klucel (hydroxypropylcellulose) (HPC)): 3 of 3

O=C(Nc1cccc(C2=NCCN2)c1)c1ccc(OCCCOc2ccc(C(=O)Nc3cccc(C4=NCCN4)c3)cc2)cc1
survivor count (dose: 50.0 mg/kg/injection, schedule: Q01DX Z (ip), vehicle: water): 2 of 6
survivor count (dose: 100.0 mg/kg/injection, schedule: Q01DX Z (ip), vehicle: water): 0 of 6

CCCCOC(=O)C1=C(C(=O)OCCCC)CCCC1
survivor count (dose: 400.0 mg/kg/injection, schedule: Q01DX009 (ip), vehicle: saline with Tween-80): 0 of 6

CCCCCCCCCCCCN (tested in a mixture with another compound)
survivor count (dose: 175.0 mg/kg/injection, schedule: Q01DX001 (ip), vehicle: Klucel (hydroxypropylcellulose) (HPC)): 2 of 6
survivor count (dose: 350.0 mg/kg/injection, schedule: Q01DX001 (ip), vehicle: Klucel (hydroxypropylcellulose) (HPC)): 0 of 6

Cc1ccc(S(=O)(=O)N(CCC(=N)N)C(C)C)cc1
survivor count (dose: 200.0 mg/kg/injection, schedule: Q04DX003 (ip), vehicle: saline): 0 of 6
survivor count (dose: 400.0 mg/kg/injection, schedule: Q04DX003 (ip), vehicle: saline): 0 of 6

Cc1n(-c2ccccc2)c2c([n+]1Cc1ccc([N+](=O)[O-])cc1)C(=O)c1ccccc1C2=O
survivor count (dose: 80.0 mg/kg/injection, schedule: Q01DX001 (ip), vehicle: other): 1 of 4
survivor count (dose: 100.0 mg/kg/injection, schedule: Q01DX001 (ip), vehicle: other): 0 of 4
survivor count (dose: 200.0 mg/kg/injection, schedule: Q01DX001 (ip), vehicle: other): 0 of 4
survivor count (dose: 400.0 mg/kg/injection, schedule: Q01DX001 (ip), vehicle: other): 0 of 4

O=C(COc1ccc(Cl)c(Cl)c1)NCc1ccc[n+](CC(=O)Nc2ccc(S(=O)(=O)F)cc2)c1
survivor count (dose: 400.0 mg/kg/injection, schedule: Q01DX009 (ip), vehicle: saline): 3 of 6

CCCCOP(=O)(OCCCC)O/C(C)=C(\C)OP(=O)(OCCCC)OCCCC
survivor count (dose: 350.0 mg/kg/injection, schedule: Q01DX009 (ip), vehicle: carboxymethylcellulose (CMC)): 1 of 6

CCc1ccc(C2=C(Cl)C(=O)C(c3ccc(CC)cc3)=C(Cl)C2=O)cc1
survivor count (dose: 200.0 mg/kg/injection, schedule: Q01DX001 (ip), vehicle: carboxymethylcellulose (CMC)): 1 of 3
survivor count (dose: 400.0 mg/kg/injection, schedule: Q01DX001 (ip), vehicle: carboxymethylcellulose (CMC)): 0 of 4

COC(=O)C1=CO[C@H](C)[C@@H]2CN3CCc4c([nH]c5ccccc45)[C@@H]3C[C@H]12
survivor count (dose: 9.0 mg/kg/injection, schedule: Q01DX Z (ip), vehicle: carboxymethylcellulose (CMC)): 6 of 6
survivor count (dose: 35.0 mg/kg/injection, schedule: Q01DX Z (ip), vehicle: carboxymethylcellulose (CMC)): 6 of 6
survivor count (dose: 70.0 mg/kg/injection, schedule: Q01DX Z (ip), vehicle: carboxymethylcellulose (CMC)): 6 of 6

CS(=O)C(Cl)C(O)c1ccccc1 (centres undefined)
T/C (dose: 200.0 mg/kg/injection, schedule: Q03DX002 (ip), vehicle: saline with Tween-80): 128 % of control

CCOC(CNC(=O)c1cccc(S(=O)(=O)F)c1)OCC
survivor count (dose: 400.0 mg/kg/injection, schedule: Q04DX003 (ip), vehicle: saline + alcohol): 0 of 6
